Assay results published in paper doi:10.1101/575860.
Numbering of substitutions follows the chain as printed. Results are given in words; binding and its absence hold for the method and conditions named. In cells and extracts the contact can be indirect. Some entries that bind do so weakly or less than the wild type. Tags and fused reporters may be left off the sequences shown.

Amino acid sequences for entries named in this document (tags omitted). A change or cut given only in a name is not applied to a line headed by its entry.
UniProt P04050, whole entry: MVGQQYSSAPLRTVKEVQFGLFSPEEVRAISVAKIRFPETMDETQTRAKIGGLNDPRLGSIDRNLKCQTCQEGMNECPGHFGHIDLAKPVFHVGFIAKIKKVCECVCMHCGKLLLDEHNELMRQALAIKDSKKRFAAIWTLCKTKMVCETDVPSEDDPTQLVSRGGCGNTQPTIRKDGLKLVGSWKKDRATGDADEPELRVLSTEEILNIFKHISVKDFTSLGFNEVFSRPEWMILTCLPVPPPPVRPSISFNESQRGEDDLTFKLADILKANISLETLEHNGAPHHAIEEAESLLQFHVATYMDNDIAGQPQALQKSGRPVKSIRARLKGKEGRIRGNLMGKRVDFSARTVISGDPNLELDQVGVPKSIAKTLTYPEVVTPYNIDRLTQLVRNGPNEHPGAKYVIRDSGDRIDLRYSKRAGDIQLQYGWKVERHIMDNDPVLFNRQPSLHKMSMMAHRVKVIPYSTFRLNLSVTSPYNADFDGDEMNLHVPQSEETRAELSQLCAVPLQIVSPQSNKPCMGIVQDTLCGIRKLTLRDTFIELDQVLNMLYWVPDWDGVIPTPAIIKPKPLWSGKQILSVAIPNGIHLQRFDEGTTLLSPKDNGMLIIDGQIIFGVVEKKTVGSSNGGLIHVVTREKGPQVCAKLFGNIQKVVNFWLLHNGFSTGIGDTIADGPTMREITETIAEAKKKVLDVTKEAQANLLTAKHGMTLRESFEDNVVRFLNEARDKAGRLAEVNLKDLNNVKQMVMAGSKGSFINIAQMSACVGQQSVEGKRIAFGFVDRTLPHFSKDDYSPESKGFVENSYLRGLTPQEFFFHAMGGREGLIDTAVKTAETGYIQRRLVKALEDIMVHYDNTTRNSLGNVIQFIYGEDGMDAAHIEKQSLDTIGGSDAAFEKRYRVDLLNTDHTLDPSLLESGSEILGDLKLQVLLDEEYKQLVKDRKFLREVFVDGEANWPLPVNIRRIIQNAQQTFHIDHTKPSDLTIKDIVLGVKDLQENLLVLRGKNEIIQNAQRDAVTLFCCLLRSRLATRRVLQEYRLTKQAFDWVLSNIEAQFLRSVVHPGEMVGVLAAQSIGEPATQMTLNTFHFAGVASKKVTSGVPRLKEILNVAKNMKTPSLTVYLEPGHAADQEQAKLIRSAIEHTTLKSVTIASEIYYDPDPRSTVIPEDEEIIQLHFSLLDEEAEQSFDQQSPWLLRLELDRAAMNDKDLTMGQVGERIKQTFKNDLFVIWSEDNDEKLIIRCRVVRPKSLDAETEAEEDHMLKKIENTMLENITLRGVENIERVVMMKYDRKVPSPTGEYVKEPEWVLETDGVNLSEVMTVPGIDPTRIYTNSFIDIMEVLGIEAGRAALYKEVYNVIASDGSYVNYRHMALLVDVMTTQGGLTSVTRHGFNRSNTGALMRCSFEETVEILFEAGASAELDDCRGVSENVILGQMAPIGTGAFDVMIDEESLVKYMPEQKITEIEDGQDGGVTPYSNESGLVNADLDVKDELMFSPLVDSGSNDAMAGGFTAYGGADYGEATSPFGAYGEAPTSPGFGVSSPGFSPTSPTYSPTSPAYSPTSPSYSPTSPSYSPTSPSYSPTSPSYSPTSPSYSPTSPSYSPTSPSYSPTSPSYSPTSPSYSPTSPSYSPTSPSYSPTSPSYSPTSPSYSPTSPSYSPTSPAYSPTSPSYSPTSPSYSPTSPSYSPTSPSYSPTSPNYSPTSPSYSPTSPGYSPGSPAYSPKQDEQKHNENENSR

Columns and labels:
[1] = target: T1, HA-Ddi1-D220A (catalytic protease mutant), overexpressed from pADH-HA-ddi1-D220A (S. cerevisiae) (UniProt P40087); experiment: co-IP
T1 sequence: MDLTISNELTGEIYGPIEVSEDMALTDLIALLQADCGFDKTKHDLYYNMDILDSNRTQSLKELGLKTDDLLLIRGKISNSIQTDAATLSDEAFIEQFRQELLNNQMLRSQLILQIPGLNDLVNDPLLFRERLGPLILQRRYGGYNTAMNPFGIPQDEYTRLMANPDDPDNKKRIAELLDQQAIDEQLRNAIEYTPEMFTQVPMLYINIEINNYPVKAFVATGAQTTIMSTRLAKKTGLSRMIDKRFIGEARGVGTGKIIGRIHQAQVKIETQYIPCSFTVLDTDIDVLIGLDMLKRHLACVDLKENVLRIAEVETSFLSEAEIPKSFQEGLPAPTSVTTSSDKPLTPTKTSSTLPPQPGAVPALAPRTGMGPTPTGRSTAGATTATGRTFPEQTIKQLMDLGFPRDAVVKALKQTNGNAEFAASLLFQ

[2] = target: T2, HA-Ddi1 (wild type), overexpressed from pADH-HA-DDI1 (S. cerevisiae) (UniProt P40087); experiment: co-IP
T2 sequence: T1 sequence with A220D

Rpb1, core component of RNA polymerase II (from UniProt P04050 1-1733)
binding [1]: binds | binding [2]: binds
